Some of these results come from one statement about several compounds together. Where no end group is shown, it is not given here.
Test system: rat femoral nerve
Assay: Femoral nerve model, MNTF pump experiments (Preferential Motor Reinnervation)
Format: in vivo
Conditions: printed as 36% to greater than 100%
Method: The specificity of motor axon regeneration was investigated in the rat femoral nerve. Proximally, at the site of nerve transection and suture, axons that contribute to both cutaneous and muscle branches intermingle throughout the nerve. As these axons regenerate, they have equal access to neighboring motor and sensory Schwann cell tubes in the distal nerve stump. This assures an element of “choice” at the axonal level. Distally, where the specificity of regeneration is assessed, axons are segregated into terminal cutaneous and muscle branches. Motor axons are normally found only in the muscle branch, so any motor reinnervation of the cutaneous branch represents a pathfinding failure. The specificity of axon regeneration is evaluated by simultaneous application of horseradish peroxidase (HRP) to one distal femoral branch and fluoro-gold (FG) to the other. Motor-axon regeneration is random at 3 weeks, but the number of correct projections to muscle increases dramatically at later times. […]
In preliminary experiments we attempted to modify motor axon regeneration in the femoral nerve by pumping MNTF 33mer at 10^−4 M onto the repair site, using an Alzet osmotic pump which discharges for at least 2 weeks. […] Reinnervation of the distal femoral cutaneous and muscle branches was quantified with tracers as described above. […]

Substance	changes versus controls in regeneration
FSRYAR [6mer]	≥ 36%
33mer: 33 amino acid MNTF1-F6 fragment, SEQ ID NO:1, made by solid phase synthesis; positive control in cell proliferation assays (LGTFWGDTLNCWMLSAFSRYARCLAEGHDGPTQ) [reference compound]	≥ 36%

Reference: patent US7795215B2, “MNTF peptides and compositions and methods of use” (Genervon Biopharmaceuticals LLC, priority 2003, dated 2010)
